Results are given in words; binding and its absence hold for the method and conditions named. In cells and extracts the contact can be indirect. Some binding calls cover weakened binding; strength is not graded here.
Columns and labels:
[1] = target: insulin-like growth-factor-1 receptor beta subunit (IGF-1Rβ) (human) (UniProt P08069); experiment: the filing's summary of its co-immunoprecipitation and pulldown studies in HUVECs
[2] = target: insulin-like growth-factor-1 receptor beta subunit (IGF-1Rβ) (human) (UniProt P08069); experiment: co-immunoprecipitation (anti-cLAR IP, anti-IGF-1Rβ blot) and GST-cLAR pulldown from HUVEC lysates
[3] = target: insulin-like growth-factor-1 receptor beta subunit (IGF-1Rβ) (human) (UniProt P08069); experiment: co-immunoprecipitation from HUVEC lysates with or without IGF-1 (100 ng/ml, 10 min): anti-cLAR IP, anti-IGF-1Rβ Western blot

By UniProt entry, the sequences of proteins in these tests, tags left out. Residues count along the entry.
UniProt P08069, residues 741-1367: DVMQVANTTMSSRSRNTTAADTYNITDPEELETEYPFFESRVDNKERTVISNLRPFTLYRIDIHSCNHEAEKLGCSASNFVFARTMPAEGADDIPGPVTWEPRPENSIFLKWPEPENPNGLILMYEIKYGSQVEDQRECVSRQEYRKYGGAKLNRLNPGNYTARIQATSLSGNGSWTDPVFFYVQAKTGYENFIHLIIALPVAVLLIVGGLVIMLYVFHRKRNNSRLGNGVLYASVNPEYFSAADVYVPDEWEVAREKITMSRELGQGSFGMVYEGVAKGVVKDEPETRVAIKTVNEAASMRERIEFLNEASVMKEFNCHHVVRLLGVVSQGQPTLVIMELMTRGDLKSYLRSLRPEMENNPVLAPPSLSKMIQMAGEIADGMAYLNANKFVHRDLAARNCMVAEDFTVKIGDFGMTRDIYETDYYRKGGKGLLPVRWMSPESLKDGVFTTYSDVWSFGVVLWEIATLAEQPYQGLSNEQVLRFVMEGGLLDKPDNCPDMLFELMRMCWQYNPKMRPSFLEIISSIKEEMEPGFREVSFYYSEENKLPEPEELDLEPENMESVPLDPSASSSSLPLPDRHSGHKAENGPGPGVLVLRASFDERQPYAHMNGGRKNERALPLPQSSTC
UniProt P10586, residues 30-1907: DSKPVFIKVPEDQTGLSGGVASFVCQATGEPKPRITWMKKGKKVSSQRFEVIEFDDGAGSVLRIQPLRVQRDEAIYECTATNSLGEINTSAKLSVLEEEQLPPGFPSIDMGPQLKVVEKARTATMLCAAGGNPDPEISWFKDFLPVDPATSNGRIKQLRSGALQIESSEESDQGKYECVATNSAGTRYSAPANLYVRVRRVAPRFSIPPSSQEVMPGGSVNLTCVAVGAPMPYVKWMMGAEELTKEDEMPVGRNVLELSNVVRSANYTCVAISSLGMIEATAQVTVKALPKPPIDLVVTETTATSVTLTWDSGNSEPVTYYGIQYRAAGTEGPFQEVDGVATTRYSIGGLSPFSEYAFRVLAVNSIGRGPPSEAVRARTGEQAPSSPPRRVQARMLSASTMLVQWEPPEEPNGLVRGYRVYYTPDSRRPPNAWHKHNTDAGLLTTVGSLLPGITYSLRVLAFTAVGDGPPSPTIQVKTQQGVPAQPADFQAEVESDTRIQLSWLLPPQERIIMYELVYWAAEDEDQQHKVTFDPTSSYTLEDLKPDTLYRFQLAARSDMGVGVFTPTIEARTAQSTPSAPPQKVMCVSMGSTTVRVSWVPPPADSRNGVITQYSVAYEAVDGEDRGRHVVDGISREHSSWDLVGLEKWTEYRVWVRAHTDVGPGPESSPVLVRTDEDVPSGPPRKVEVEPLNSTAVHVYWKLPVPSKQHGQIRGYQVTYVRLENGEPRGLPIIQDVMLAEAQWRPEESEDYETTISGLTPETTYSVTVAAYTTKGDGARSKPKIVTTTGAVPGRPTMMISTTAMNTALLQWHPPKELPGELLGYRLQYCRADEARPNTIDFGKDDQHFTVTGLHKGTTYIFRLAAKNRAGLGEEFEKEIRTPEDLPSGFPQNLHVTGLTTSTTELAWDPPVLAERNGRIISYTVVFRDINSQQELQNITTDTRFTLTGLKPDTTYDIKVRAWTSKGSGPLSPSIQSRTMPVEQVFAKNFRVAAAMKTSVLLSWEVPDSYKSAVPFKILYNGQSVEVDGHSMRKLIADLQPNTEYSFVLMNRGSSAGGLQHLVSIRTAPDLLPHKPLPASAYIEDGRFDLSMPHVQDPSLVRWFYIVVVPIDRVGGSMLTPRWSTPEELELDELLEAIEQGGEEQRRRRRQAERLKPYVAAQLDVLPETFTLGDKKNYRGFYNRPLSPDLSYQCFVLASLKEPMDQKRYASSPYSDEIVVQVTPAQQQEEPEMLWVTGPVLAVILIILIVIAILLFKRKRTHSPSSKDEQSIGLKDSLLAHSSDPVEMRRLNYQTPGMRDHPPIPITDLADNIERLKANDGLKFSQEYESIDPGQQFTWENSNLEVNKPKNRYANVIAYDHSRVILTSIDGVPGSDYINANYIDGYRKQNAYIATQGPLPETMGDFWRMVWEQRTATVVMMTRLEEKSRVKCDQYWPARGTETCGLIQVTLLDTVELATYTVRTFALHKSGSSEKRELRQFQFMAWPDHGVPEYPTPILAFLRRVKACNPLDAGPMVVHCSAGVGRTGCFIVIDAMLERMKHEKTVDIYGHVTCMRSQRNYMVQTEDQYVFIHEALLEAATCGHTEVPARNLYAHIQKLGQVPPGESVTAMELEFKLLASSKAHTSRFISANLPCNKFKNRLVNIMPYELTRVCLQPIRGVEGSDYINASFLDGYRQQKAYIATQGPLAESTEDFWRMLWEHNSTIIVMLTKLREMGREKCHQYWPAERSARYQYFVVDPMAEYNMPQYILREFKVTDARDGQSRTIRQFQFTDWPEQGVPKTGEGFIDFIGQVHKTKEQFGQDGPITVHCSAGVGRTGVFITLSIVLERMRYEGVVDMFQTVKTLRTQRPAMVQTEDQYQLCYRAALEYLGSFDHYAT

binding [1]: binds
binding [2]: binds
binding [3]: binds
Substance: leukocyte antigen-related protein tyrosine phosphatase (LAR) (from UniProt P10586 30-1907) (enzyme)

Reference: patent US20130171163A1, “Inhibition of LAR Phosphatase to Enhance Therapeutic Angiogenesis” (priority 2010, published 2013)
